{"sequences": {"note": "Chains of the proteins cited; added tags and fusions are not shown. Lines headed by an entry give the natural chain unless they say otherwise; changes in a name come on top.", "UniProt Q9UNA4": "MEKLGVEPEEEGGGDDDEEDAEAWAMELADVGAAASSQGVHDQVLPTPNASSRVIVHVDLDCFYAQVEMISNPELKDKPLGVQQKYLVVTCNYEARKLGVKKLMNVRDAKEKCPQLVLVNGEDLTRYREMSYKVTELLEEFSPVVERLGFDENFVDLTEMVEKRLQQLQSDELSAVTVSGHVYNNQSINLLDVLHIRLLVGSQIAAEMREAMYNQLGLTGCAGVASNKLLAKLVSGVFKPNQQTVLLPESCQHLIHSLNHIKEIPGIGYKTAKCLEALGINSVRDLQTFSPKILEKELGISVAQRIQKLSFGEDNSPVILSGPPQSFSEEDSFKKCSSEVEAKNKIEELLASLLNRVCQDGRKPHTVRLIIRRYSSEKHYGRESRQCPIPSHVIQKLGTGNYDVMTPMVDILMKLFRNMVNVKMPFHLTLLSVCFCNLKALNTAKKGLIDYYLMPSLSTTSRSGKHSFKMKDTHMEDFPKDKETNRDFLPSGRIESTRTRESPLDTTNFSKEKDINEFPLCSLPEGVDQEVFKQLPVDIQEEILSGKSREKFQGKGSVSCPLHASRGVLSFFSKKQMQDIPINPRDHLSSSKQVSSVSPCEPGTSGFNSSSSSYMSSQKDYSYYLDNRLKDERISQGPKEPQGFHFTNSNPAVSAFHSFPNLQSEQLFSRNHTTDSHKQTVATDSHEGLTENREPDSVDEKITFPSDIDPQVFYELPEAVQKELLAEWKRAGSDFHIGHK"}, "source": "PubChem BioAssay AID588590", "about": "(National Center for Advancing Translational Sciences (NCATS), 2011)", "note": "Hit rate of the full screen: of about 390,000 compounds, about 4,000 (1%) were called active. This list was built around the results that the source calls inconclusive (neither active nor inactive); the mix of calls is not that of the screen. The call rests on the fitted dose curve; in most records, active means well fitted inhibition curve with a large enough effect; inconclusive means small, poorly fitted or top-dose-only effect, or another doubt; inactive means no such curve, though single readings can be large or run the other way. A potency beside an inconclusive call is a rough fit, not a confirmed value. Potency means the concentration at half of the fitted maximal effect."}
{"molecular_target": "DNA polymerase iota (Homo sapiens) (UniProt Q9UNA4)", "assay": "qHTS for Inhibitors of Polymerase Iota", "details": "Pol iota fluorescent replication assay, 10 min; series mostly up to 115 µM", "summary_of_the_method": "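Fluorescent replication assay read twice, at 0 min and 10 min after adding 50 nM (final) substrate. Enzyme (10 nM) and compounds were first incubated 15 min at room temperature; enzyme-free buffer wells were negative controls.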"}
{"smiles": "CCC(=O)Nc1cccc(C2=NOC3(C2)C[C@@H](C(N)=O)N(C(=O)CC)C3)c1", "note": "(stereo partly specified)", "Potency": "inactive"}
{"smiles": "CC(C)c1nc2ccc(C(=O)NCCCN3CCN(c4cccc(Cl)c4)CC3)cc2o1", "Potency": "inactive"}
{"smiles": "CCC(=O)Nc1ccc(C2=Nn3c(nnc3C(C)C)SC2)cc1", "Potency": "inconclusive: 11.2 µM [inhibitor, full curve]"}
{"smiles": "CCOc1ccccc1NC(=O)Cn1nnc(C(=O)NCc2ccco2)c1N", "Potency": "inconclusive: 100 µM [inhibitor, partial curve, poor fit]"}
{"smiles": "CCNC(=S)NS(=O)(=O)c1ccc(Cl)cc1", "Potency": "inconclusive: 44.7 µM [inhibitor, partial curve, poor fit]"}
{"smiles": "COc1ccc(NC(=O)COc2coc(CN3c4ccccc4CC3C)cc2=O)cc1", "note": "(stereo unspecified)", "Potency": "inconclusive: 50.1 µM [inhibitor, partial curve, poor fit]"}
{"smiles": "O=C(Oc1ccccc1N1C(=O)CCC1=O)c1ccco1", "Potency": "inconclusive: 31.6 µM [inhibitor, single point]"}
{"smiles": "CC(NC(=O)c1ccc2c(c1)OCO2)C(c1cccs1)N1CCN(c2ccccc2)CC1", "note": "(stereo unspecified)", "Potency": "inconclusive: 39.8 µM [inhibitor, partial curve, poor fit]"}
{"smiles": "Cc1cccc(N2CCN(C(=O)C3CCCN(S(=O)(=O)c4ccc(Br)s4)C3)CC2)c1C", "note": "(stereo unspecified)", "Potency": "inactive"}
{"smiles": "O=C(CCCOc1ccc(Cl)cc1Cl)Nc1ccncc1", "Potency": "inconclusive: 89.1 µM [inhibitor, partial curve, poor fit]"}
{"smiles": "N#CC1=C(SCC(=O)c2cc3ccccc3oc2=O)NC(=O)C(C#N)C12CCCC2", "note": "(stereo unspecified)", "Potency": "inconclusive: 112 µM [inhibitor, partial curve, poor fit]"}
{"smiles": "CN(C)/C=C1\\C=C2C(=O)c3ccccc3N2C1=O", "Potency": "inconclusive: 7.08 µM [inhibitor, full curve, poor fit]"}
{"smiles": "COC(=O)c1ccccc1NC(=O)C1CCCN(c2nnc(-n3cccc3)s2)C1", "note": "(stereo unspecified)", "Potency": "inconclusive: 20 µM [inhibitor, partial curve, poor fit]"}
{"smiles": "CC(=O)Nc1ccc(-c2cc(C(=O)O)c3ccccc3n2)cc1", "Potency": "inconclusive: 100 µM [inhibitor, partial curve, poor fit]"}
{"smiles": "CCCCn1nc(C(=O)Nc2cc(S(=O)(=O)N(C)C)ccc2C)c2ccccc2c1=O", "Potency": "inconclusive: 79.4 µM [inhibitor, single point]"}
{"smiles": "Cc1cc(C(=O)OCC(=O)N2CC(=O)Nc3ccccc32)no1", "Potency": "inactive"}
{"smiles": "CC(CNC(=O)CN1C(=O)COc2ccc(S(=O)(=O)N3CCCCCC3)cc21)c1ccccc1", "note": "(stereo unspecified)", "Potency": "inactive"}
{"smiles": "COc1ccc(CCNC(=O)c2cccc(-n3cnc4cccnc43)c2C)cc1OC", "Potency": "inactive"}
{"smiles": "COc1ccc(N2C(=O)CS(=O)(=O)C23C(=O)N(Cc2ccc(F)cc2)c2ccc(C)cc23)cc1", "note": "(stereo unspecified)", "Potency": "inactive"}
{"smiles": "O=C(/C=C/c1cccc(O)c1)c1cccnc1", "Potency": "inconclusive: 15.8 µM [inhibitor, partial curve, poor fit]"}
{"smiles": "S=c1nn[nH]n1C12CC3CC(CC(C3)C1)C2", "Potency": "inconclusive: 70.8 µM [inhibitor, partial curve, poor fit]"}
{"smiles": "COc1cc(Cl)cc(C=O)c1OCC(=O)O", "Potency": "inconclusive: 79.4 µM [inhibitor, partial curve, poor fit]"}
{"smiles": "CCN(C(=O)CSc1nnc(-c2cc(OC)c(OC)c(OC)c2)o1)c1ccccc1", "Potency": "inconclusive: 56.2 µM [inhibitor, partial curve, poor fit]"}
{"smiles": "O=C1ON=C(c2ccccc2)/C1=C/c1ccc(O)c(O)c1", "Potency": "inconclusive: 15.8 µM [inhibitor, partial curve, poor fit]"}
{"smiles": "Cc1cccc(OCCn2c(CCNC(=O)C3CCCCC3)nc3ccccc32)c1", "Potency": "inconclusive: 100 µM [inhibitor, single point]"}
{"smiles": "CC1(C)S[C@@H]2[C@H](NC(=O)C(C(=O)O)c3ccccc3)C(=O)N2[C@H]1C(=O)O", "note": "(stereo partly specified)", "Potency": "inconclusive: 100 µM [inhibitor, partial curve, poor fit]"}
{"smiles": "CCOc1ccc(Cc2nnc(SCC(=O)Nc3ccccc3)n(N)c2=O)cc1", "Potency": "inconclusive: 89.1 µM [inhibitor, partial curve]"}
{"smiles": "CCOc1cc(CNC(=O)c2ccccc2NC(=O)c2nsc3ccccc23)ccc1OC", "Potency": "inconclusive: 89.1 µM [inhibitor, partial curve, poor fit]"}
{"smiles": "COc1ccc(S(=O)(=O)c2c(Nc3c(C)cccc3C)sc(C(=O)c3ccc4c(c3)OCO4)c2N)cc1", "Potency": "inactive"}
{"smiles": "O=C(Nc1ccc2oc(-c3cccnc3)nc2c1)c1ccc(-c2cccc(Cl)c2)o1", "Potency": "inactive"}
{"smiles": "COC(=O)c1ccc(NC(=O)CS(=O)(=O)c2ccccc2)cc1", "Potency": "inconclusive: 70.8 µM [inhibitor, single point]"}
{"smiles": "O=C(NCCCN1CCCC1=O)c1cccc(S(=O)(=O)NCc2ccccc2)c1", "Potency": "inconclusive: 89.1 µM [inhibitor, single point]"}
{"smiles": "CC(C)[C@@H](C(=O)NCC1CCC(C(=O)O)CC1)n1nnc2ccccc2c1=O", "note": "(stereo partly specified)", "Potency": "inconclusive: 31.6 µM [inhibitor, single point]"}
{"smiles": "CC1CCCCC1NC(=O)Cn1cnc2sccc2c1=O", "note": "(stereo unspecified)", "Potency": "inactive"}
{"smiles": "O=C(CSC(=S)N1CCOCC1)Nc1ccc(S(=O)(=O)Nc2ncccn2)cc1", "Potency": "inconclusive: 89.1 µM [inhibitor, single point]"}
{"smiles": "Cn1c(-[n+]2c(-c3ccccc3)cc(-c3ccccc3)cc2-c2ccccc2)nc2cc([N+](=O)[O-])ccc21", "Potency": "inactive"}
{"smiles": "CCCCN1C2=C(C(=O)CC(C)(C)C2)C(c2ccccc2)C2=C1c1ccccc1C2=O", "note": "(stereo unspecified)", "Potency": "inconclusive: 31.6 µM [inhibitor, partial curve, poor fit]"}
{"smiles": "CCOc1ccccc1NC(=O)c1ccc2nc[nH]c2c1", "Potency": "inconclusive: 15.8 µM [inhibitor, full curve, poor fit]"}
{"smiles": "C#CCOCCOCCOCCNc1nc(N2CCN(C(=O)Cn3cc(CC(C)O)nn3)CC2)nc(N2CCN(C(=O)[C@H](CCCCN)n3cc(CC(C)O)nn3)CC2)n1", "note": "(stereo partly specified)", "Potency": "inconclusive: 25.1 µM [inhibitor, single point]"}
{"smiles": "Cc1cccc(Nc2nc(N)nc(CN3CCN(c4ccc(F)cc4)CC3)n2)c1", "Potency": "inconclusive: 89.1 µM [inhibitor, partial curve]"}
{"smiles": "Cc1cccc(N2CCN(S(=O)(=O)c3ccc4c(c3)C(C(C)C)C(=O)N4)CC2)c1C", "note": "(stereo unspecified)", "Potency": "inconclusive: 70.8 µM [inhibitor, partial curve]"}
{"smiles": "CC(C)(C)C(=O)Nc1ccc(S(=O)(=O)N2CCC(c3nc4ccccc4[nH]3)CC2)cc1", "Potency": "inactive"}
{"smiles": "COc1ccc(Nc2nc(N)nc(CN(C)C3CCCCC3)n2)cc1", "Potency": "inconclusive: 39.8 µM [inhibitor, single point]"}
{"smiles": "C1=CN2CCC1C(c1ccccc1)C2", "note": "(stereo unspecified)", "Potency": "inconclusive: 15.8 µM [inhibitor, full curve, poor fit]"}
{"smiles": "CC(=O)Nc1ccc(NC(=O)C/C(C)=N/NC(=O)C(=O)N2CCCC2)cc1", "Potency": "inconclusive: 22.4 µM [inhibitor, single point]"}
{"smiles": "Cc1ccc(SC(=O)COc2ccccc2C)cc1", "Potency": "inconclusive: 15.8 µM [inhibitor, partial curve, poor fit]"}
{"smiles": "CCN(CC)CCOC(=O)C(Cc1cccc2ccccc12)CC1CCCO1", "note": "(stereo unspecified)", "Potency": "inconclusive: 10 µM [inhibitor, partial curve, poor fit]"}
{"smiles": "CC(=O)n1nc(-c2ccco2)nc1SCc1ccccc1", "Potency": "inconclusive: 28.2 µM [inhibitor, full curve, poor fit]"}
{"smiles": "CCC(C)(C)n1nnnc1CN1CCSCC1", "Potency": "inconclusive: 50.1 µM [inhibitor, partial curve]"}
{"smiles": "CC(OC(=O)c1ccc(NC(=O)CC#N)cc1)C(=O)NC(c1ccccc1)c1ccccc1", "note": "(stereo unspecified)", "Potency": "inconclusive: 35.5 µM [inhibitor, partial curve]"}
{"smiles": "Cc1cc(C)nc(NS(=O)(=O)c2ccccc2)n1", "Potency": "inconclusive: 100 µM [inhibitor, partial curve, poor fit]"}
{"smiles": "O=S(=O)(Nc1cccc2ccccc12)c1ccc2ccccc2c1", "Potency": "inconclusive: 20 µM [inhibitor, partial curve, poor fit]"}
{"smiles": "O=C(O)CCN1C(=O)/C(=C\\c2cccc(OCC(=O)Nc3ccc(Cl)cc3)c2)SC1=S", "Potency": "inconclusive: 39.8 µM [inhibitor, full curve, poor fit]"}
{"smiles": "Cc1ccc(Cn2c(C)nc3c(c2=O)c2nc4ccccc4nc2n3Cc2ccco2)cc1", "Potency": "inconclusive: 63.1 µM [inhibitor, partial curve, poor fit]"}
{"smiles": "CCOc1ccc(C(=O)Nc2cc(NC(=O)c3ccc(OCC)c(Cl)c3)cc(C(=O)O)c2)cc1Cl", "Potency": "inconclusive: 31.6 µM [inhibitor, single point]"}
{"smiles": "O=C(COC(=O)C1CCN(c2ccc(C(F)(F)F)cn2)CC1)Nc1cccc(F)c1", "Potency": "inconclusive: 89.1 µM [inhibitor, partial curve, poor fit]"}
{"smiles": "Cc1ccc(N(Cc2cccs2)C(=O)C(C)Oc2ccc(Cl)c(C)c2)cc1", "note": "(stereo unspecified)", "Potency": "inconclusive: 89.1 µM [inhibitor, partial curve, poor fit]"}
{"smiles": "COc1cccc(OCc2cc(C(=O)N(C)CCC3CCCCO3)no2)c1", "note": "(stereo unspecified)", "Potency": "inconclusive: 3.55 µM [inhibitor, partial curve, poor fit]"}
{"smiles": "COc1ccc2c(c1)c(C(=O)CNc1nc(C)cs1)c(C)n2C", "Potency": "inconclusive: 31.6 µM [inhibitor, single point]"}
{"smiles": "COCCn1c(N2CCN(c3ccc(OC)cc3)CC2)nc2c1c(=O)[nH]c(=O)n2C", "Potency": "inconclusive: 39.8 µM [inhibitor, single point]"}
{"smiles": "O=C(O)CSC1CC(=O)N(c2ccc(Br)cc2)C1=O", "note": "(stereo unspecified)", "Potency": "inconclusive: 44.7 µM [inhibitor, full curve, poor fit]"}
